In patent US20170088602A1 (Bristol-Myers Squibb, published 2017):
These are yes or no findings as the source states them, for the method shown. Some entries that bind do so weakly or less than the wild type. For some assays here: Tags and fused reporters may be left off the sequences shown. Blank lines part the entries; values can stand above or below the binder they belong to.

Experiments:
[1] = biological target: T1, human myostatin (mature, recombinant; R&D Systems) (human) (UniProt O14793); assay: KinExA detection reagent
T1 sequence: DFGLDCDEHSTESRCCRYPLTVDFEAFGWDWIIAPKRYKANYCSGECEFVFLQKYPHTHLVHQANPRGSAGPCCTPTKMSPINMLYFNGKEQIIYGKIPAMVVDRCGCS

[2] = biological target: T2, human BMP-11 (GDF-11; R&D Systems) (human, UniProt O95390 299-407); assay: SPR Format A, 100 nM BMP11
T2 sequence (looked up): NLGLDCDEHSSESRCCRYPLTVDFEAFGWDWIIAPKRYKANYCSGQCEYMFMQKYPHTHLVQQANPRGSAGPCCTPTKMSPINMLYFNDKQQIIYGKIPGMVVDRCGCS

[3] = biological target: T1, human myostatin (mature, recombinant; R&D Systems) (human); assay: SPR Format A, 100 nM myostatin
[4] = biological target: T1, human myostatin (mature, recombinant; R&D Systems) (human); assay: SPR Format B
[5] = biological target: T2, human BMP-11 (GDF-11; R&D Systems); assay: SPR Format B

- binding [1]: binds
B1: fluorescent-labeled ActRIIB-Ig (Fc fusion, UniProt Q13705 19-134, looked up, not shown: a dimerising Fc or GST)
chain: SGRGEAETRECIYYNANWELERTNQSGLERCEGEQDKRLHCYASWRNSSGTIELVKKGCWLDDFNCYDRQECVATEENPQVYFCCCEGNFCNERFTHLPEAGGPEVTYEPPPTAPT
modifications: fluorescent label

- binding [2]: binds
- binding [3]: binds
B2: ActRIIB-Fc (produced in house) (Fc fusion, UniProt Q13705 19-134, looked up, not shown: a dimerising Fc or GST)
chain: B1 chain

- binding [4]: binds
- binding [5]: binds
B3: ActRIIB-monomer (produced in house) (receptor, UniProt Q13705 19-134, looked up)
chain: B1 chain
